# Assay results published in publication PMC9542535.
# These are yes or no findings as the source states them, for the method shown. Binding can be weak; no strength is given. Tags and fused reporters may be left off the sequences shown.
# What was measured:
# [1] = target: T1, VnfA3, bacterial two-hybrid fusion (Azotobacter vinelandii) (UniProt C1DIZ6); test: two-hybrid; bacterial adenylate cyclase two-hybrid (BACTH) in E. coli BTH101, T18 and T25 fusions, read out by β-galactosidase activity (Miller Units)
# T1 sequence: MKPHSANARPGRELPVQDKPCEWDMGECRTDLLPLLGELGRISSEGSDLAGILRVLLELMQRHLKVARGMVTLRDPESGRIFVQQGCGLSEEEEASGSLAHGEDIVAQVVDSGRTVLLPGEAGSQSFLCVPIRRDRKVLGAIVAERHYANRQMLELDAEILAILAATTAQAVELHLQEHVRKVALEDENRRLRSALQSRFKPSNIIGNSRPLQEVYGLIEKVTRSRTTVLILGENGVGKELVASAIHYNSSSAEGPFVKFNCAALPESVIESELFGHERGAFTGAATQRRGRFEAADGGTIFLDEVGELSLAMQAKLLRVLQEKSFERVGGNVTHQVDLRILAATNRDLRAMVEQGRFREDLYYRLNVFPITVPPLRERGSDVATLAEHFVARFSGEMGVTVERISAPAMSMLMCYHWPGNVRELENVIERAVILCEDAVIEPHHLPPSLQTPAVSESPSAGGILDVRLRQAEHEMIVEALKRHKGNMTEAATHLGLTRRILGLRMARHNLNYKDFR
# [2] = target: T2, VnfA1 (vanadium nitrogenase activator VnfA), bacterial two-hybrid fusion (Azotobacter vinelandii) (UniProt P12627); test: as above
# T2 sequence: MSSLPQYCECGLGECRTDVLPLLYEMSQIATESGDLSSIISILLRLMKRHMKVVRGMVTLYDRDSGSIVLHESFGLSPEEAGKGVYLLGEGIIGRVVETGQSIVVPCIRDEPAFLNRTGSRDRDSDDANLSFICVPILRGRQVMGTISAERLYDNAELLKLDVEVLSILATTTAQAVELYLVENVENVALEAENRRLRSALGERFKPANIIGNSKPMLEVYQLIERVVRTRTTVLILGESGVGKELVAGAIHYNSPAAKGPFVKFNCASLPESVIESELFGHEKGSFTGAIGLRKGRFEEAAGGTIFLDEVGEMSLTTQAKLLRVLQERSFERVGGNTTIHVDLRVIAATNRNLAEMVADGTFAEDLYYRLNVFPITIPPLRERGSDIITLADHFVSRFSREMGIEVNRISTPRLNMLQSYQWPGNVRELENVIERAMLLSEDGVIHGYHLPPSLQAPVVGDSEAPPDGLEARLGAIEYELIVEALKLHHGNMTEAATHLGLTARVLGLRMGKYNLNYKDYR
substance,measurement,setting,value
"VnfZ (Avin_47110), bacterial two-hybrid fusion (from UniProt C1DIZ7)",binding,[1],binds
same,binding,[2],binds
